## Screening data, single-dose tests

Mtb cholesterol medium: 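Growth of Mycobacterium tuberculosis over 4 days (cholesterol / DPPC medium with tyloxapol); the read-out is not stated. Concentration: 50 µM. The record gives no direction; compounds that gave an IC50 in retests scored well above the rest, so higher reads as more growth inhibition. Of about 69,000 compounds tested this way, about 370 (0.54%) reached 50% or more in at least one test.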
Mtb glucose medium: 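Phenotypic screen: M. tuberculosis growth, glucose 7H9 medium, 3 days; the read-out is not stated. Compounds at 50 µM. Direction is inferred from retests: higher values go with more growth inhibition. About 69,000 compounds were tested under these conditions; 1.1% (about 760) showed 50% or more at least once.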

Each number is a percent effect as filed.
How 0% and 100% were set is not recorded. Most values in the screen are low, and negative values occur.
The compounds are a random part of those screened.
Two or more numbers in one place are separate tests of the same structure; such repeats can differ widely.

SMILES	Mtb cholesterol medium	Mtb glucose medium
CC(C)Cn1nc(-c2ccc(C(=O)O)cc2)cc1-c1ccc(F)cc1	12.59 & 4.549	25.07
COC(=O)NCC(=O)N1CCCCC1c1nc2cc(F)ccc2[nH]1 (centres unmarked)	-7.428	10.9
O=C(c1ccc2ccccc2c1)C1CCCN(C(=O)Cn2cncn2)C1 (centres unmarked)	-6.134	1.39
CN1CCN(C2CCN(Cc3noc(-c4ccccc4)n3)CC2)C1=O	4.077	1.739
CCc1nc(N2CCCN(c3ncccn3)CC2)c2cnn(C)c2n1	15.67	16.85
O=C(O)C(F)(F)F.c1cnc(N2Cc3nccn3CC(COc3cccnc3)C2)nc1 (centres unmarked)	-5.251	-10.84
CC(C)(CNC(=O)Nc1ccc(S(=O)(=O)C(F)F)cc1)N1CCOCC1	-12.42	-12.62
Cc1cnc(CNCc2cn(CCN3CCSCC3)nc2C)cn1	-58.57	-23.06
O=C(O)C(F)(F)F.[H][C@@]12OCCN(CCOCc3ccccc3)[C@@]1([H])CC[C@H]2OCC	-21.67	-13.68
COCCN(CC1CCCN(C2Cc3ccccc3C2)C1)C(=O)CO (centres unmarked)	0.2958	28.55
[H][C@]12CCC[C@@]1(COC)CN(C(=O)COC)C2	4.612	10.63
O=C(NCCC1CN(Cc2c[nH]cn2)CCO1)c1ccccc1O (centres unmarked)	-36.69	-33.08
CC(CC(=O)N1CCCN(Cc2cscn2)CC1)n1cccc1 (centres unmarked)	-8.049	21.61
COc1cnc(CN2CC(=O)N(c3ccc(C)cc3)CC2C)cc1O (centres unmarked)	-22.91	-35.25
Cc1cc(-c2ccnn2C)nc(C2CCCN(S(C)(=O)=O)C2)n1 (centres unmarked)	2.04 & -1.942	5.307
O=C(Nc1nnc(N2CCCCC2)[nH]1)c1cccs1	25.28	39.42
COc1cccc(Cn2cccc(C#N)c2=O)c1	2.532	-4.613 & 36.47
[H][C@]12CNC[C@@]1(C(=O)NCc1snnc1C)CN(C(=O)COC)C2	-5.52	-10.82
CSCc1ccc(N(C)CC2CCCN(C(C)C)C2)nc1 (centres unmarked)	-12.5 & -3.632	-21.88 & -4.212
CC(C)C(=O)N1CCC2(COCc3cnc(-c4cccnc4)nc32)C1 (centres unmarked)	3.694	17.98
O=S(=O)(NC1=NCN(CCc2cccs2)CN1)c1ccccc1	14.55	25.28
Cc1ccc(CNC(=O)c2cc(NC(=O)C3CC3)n(C)n2)o1	14.83	10.86
COc1cccc(C2CCCN2CCCNS(C)(=O)=O)c1 (centres unmarked)	-23.15	-35.32
CN(C)CCn1ccnc1C1CCCN(C(=O)CCc2cccnc2)C1 (centres unmarked)	-22.39	5.511
CC1COCCN1C(=O)c1ccc(=O)n(CCOc2ccccc2)n1 (centres unmarked)	-32.64	-49.46
COc1ccc(CNC(=O)Nc2ccc(CN3CCOC3=O)cc2)cc1	-6.248	2.089
O=C(CN1C(=O)CCC1=O)NCc1cc(C2CC2)n(C2CCCC2)n1	8.805	-17.59 & -1.586
O=C(c1cccc(-c2ccc(F)cc2)c1)N1CCCC(O)(CO)CC1 (centres unmarked)	-10.16	-9.563
CNS(=O)(=O)c1ccc(CNC(=O)c2cc(C)no2)cc1	-14.2	2.55
Cc1cc(C)c(C(=O)N2CCCC(O)(CN3CCCC3)C2)cc1C (centres unmarked)	-0.5359	16.22
Cc1cc(SCC(=O)O)nc2nn(CC(F)F)c(C)c12	-4.366	-7.526
CNCC(=O)N1CC(c2cc(Nc3ncccn3)nc(C)n2)C1.Cl	-23.67	-17
Cc1nc(C)c(C(=O)NCCNc2cc(N3CCCC3)ncn2)s1	-12.98 & -9.808	0.0462
Cc1cc(NC(=O)CNC2CCc3nc(C(C)C)nn3C2)no1 (centres unmarked)	11.23	-2.666 & -8.186
[H][C@]12CN(C(=O)c3cccnc3)CCN1C(=O)N(Cc1ccc(F)cc1)C2	5.241	0.09921 & -35.57
O=C(NCCc1nccs1)[C@H](c1ccccc1)n1cnnn1	6.895	-9.75 & -1.261
CC(C)C(C(=O)N1CCCN(Cc2cscn2)CC1)n1cncn1 (centres unmarked)	-20.83	-11.31
O=C(Nc1ccccc1)c1ccc2c(c1)C1(CCCCC1)CN2.O=C(O)C(F)(F)F	-5.312	20.78
CNc1nc(C(=O)N2CCN(c3cc(C)nc(C)c3)CC2)cs1	-3.851	-6.963 & -8.758
Cc1sc(C(=O)NC(C)C)cc1S(=O)(=O)N(C)C	12.99 & 5.84	-17.99
Cc1ccn(-c2ccnc(N3CCC(N4CCCCC4)CC3)n2)n1	3.051	22.78
Cc1ncncc1C(=O)N1CCOC(C(=O)NC2CCCC2)C1 (centres unmarked)	16.02	-4.203
O=C(CN1CCC2(CC1)NC(=O)c1cc(Br)ccc1N2)NC1CC1	-12.49 & 3.49	-6.724
COCCN1CCC2(CC1)CN(C(=O)C1CC1)c1ccc(F)cc12.O=C(O)C(F)(F)F	-13.82	-22.94
COc1ccc(CNc2c(C)nn(C(C)C)c2C)cc1OC.Cl	-6.735	2.486
COc1cccc(OCC2CCCN(C3CCN(C(C)=O)CC3)C2)c1 (centres unmarked)	-5.392	-6.524
c1coc(CN2CCc3onc(Cn4ccnc4)c3C2)c1	4.842	15.01 & -25.94
CC(=O)N(C/C=C/c1ccccc1)CCO	-24.33	-33.02 & -3.38
COC(=O)CCNC(=O)c1c[nH]cc1-c1cccc(OC)c1	-7.722	-12.58
COCC(=O)N1CCN(Cc2cc(-c3ccncc3)nn2C)CC1	-17.36	-20.78

For reference, 4 entries once more:

- COc1cccc(OCC2CCCN(C3CCN(C(C)=O)CC3)C2)c1 (centres unmarked) : Mtb cholesterol medium: -5.392%; Mtb glucose medium: -6.524%
- COc1cccc(C2CCCN2CCCNS(C)(=O)=O)c1 (centres unmarked) : Mtb cholesterol medium: -23.15%; Mtb glucose medium: -35.32%
- [H][C@]12CCC[C@@]1(COC)CN(C(=O)COC)C2 : Mtb cholesterol medium: 4.612%; Mtb glucose medium: 10.63%
- O=C(NCCC1CN(Cc2c[nH]cn2)CCO1)c1ccccc1O (centres unmarked) : Mtb cholesterol medium: -36.69%; Mtb glucose medium: -33.08%

The values are deposited in ChEMBL (CHEMBL3988442, “University of Dundee, Small-Polar-MMV Screening Library” (2021)).